In patent US9645138B2, “Method to evaluate the tissue targeting of a molecule of interest” (IMABIOTECH, priority 2013, dated 2017):

Test system: receptor in the brain (GABA)
Assay: Receptor occupancy / adsorption by MALDI imaging of rat brain sections, Diazepam dosed and Lorazepam washing (Example 2)
Excerpt: FIG. 7 explains the methodology of adsorption of a molecule on tissue using the example of the receptor occupancy process. In this way, it is possible to measure the occupancy efficiency of the receptor by the drug (agonist) administered to the animal compared with an antagonist molecule. In this example, all the steps of the methodology are described: the dosed tissue analysis alone, the washing step with the antagonist solution of the control tissue and the combined dosed/washing analysis of the administrated sample. No negative marker is required for this kind of experiment.
Of course, in an almost identical manner an imaging device other that MALDI can be used, such as the following: SIMS, DESI, DIOS, ICP, MALDI microscope, SNOM, SMALDI, LA-ICP, ESI (liquid extraction on tissue), MILDI, JEDI, ELDI, etc.
Wild-type rats weighing 35-40 g were used. […] Animals (dosed and control rats) were sacrificed by CO2 asphyxiation. […] Finally, brains were stored at −80° C.
Brains (control and dosed tissues) were sectioned into 10 μm thick layers (coronal section) using a Microm HM560 (Thermo Scientific, France) cooled at −20° C.
The antagonist solution was prepared from a stock solution of Lorazepam at 1 mg/ml in methanol (100%). The final concentration of the washing solution was fixed at 100 pmol/μL in methanol/water+0.1% TFA (7:3). The concentration of the antagonist is a crucial factor for receptor occupancy that improves the binding capacity of the molecule. 20 μL of the solution was spotted on the tissue section (one dosed and one control sample) and then incubated for 1 hour at 37° C. in a box inside an INCU-Line incubator (VWR, France). A dosed brain section without washing was also put in the incubator.
After incubation, tissues were washed using 2 steps to remove unbound molecules from the tissue, firstly with a solution of methanol/water+0.1% TFA (7:3) corresponding to the antagonist washing solution. Secondly, the tissue is washed using only water solution (10 mL) and then placed into a desiccator for 15 min.
A DHB matrix was used for the analysis of all brain tissue sections with or without washing with the Lorazepam solution. This matrix was prepared at a concentration of 40 mg/ml in methanol/water+0.1% TFA (1:1, v/v).
The data was generated in positive reflectron mode.
The F2 factor allows comparison of the fine localization of the agonist and the antagonist in the white matter region and gives information about their similarity or dissimilarity.

[1] = rat brain targeted area T1, positive marker Lorazepam = 100%

CN1C(=O)CN=C(c2ccccc2)c2cc(Cl)ccc21 [Diazepam]
localization on the brain section (MSI) (brain dosed with the agonist (15 mg/kg i.v.) without washing): at the level of the white matter of the brain | F1 (%) [1]: 85.1% | F2 (%) [1]: 72.5% | affinity for the receptor site of benzodiazepine regarding the positive marker (rat brain white matter, conclusion of Example 2): high affinity | Normalized mean intensity/Tissue T1 (rat brain, targeted area T1 (white matter, receptor binding site), Diazepam 15 mg/kg i.v., Lorazepam washing 100 pmol/μL): 0.692 | Normalized mean intensity/Tissue T2 (rat brain, untargeted area T2 (rest of the brain), Diazepam 15 mg/kg i.v., Lorazepam washing 100 pmol/μL): 0.117 | % Tar (targeting coefficient) (target area (Receptor) T1, rat brain): 78.8%
